The values that follow come from the supplement of paper PMC12873370.

The subject of experiment [1] is MEPP (mouse ovarian epithelium Trp53/Pten KO). The experiment in a line: cell viability relative to untreated (fraction); higher = less growth inhibition. Particulars: 5 µM; 3 days.
Experiment [2] concerns PREPP (mouse prostate epithelium Trp53/Pten KO). Described as above. Particulars: 5 µM; 3 days.

“And” between values parts separate entries of the source, which are not always exact repeats. Equal values may be shown once. The list shows a part of the results. Single values are uncertain, as repeats are few or missing.

Take `O=C1c2c(O)cc(O)cc2O[C@H](c2cc(O)c(O)c(O)c2)[C@H]1O`: the cell viability in experiment [1] amounted to 0.857; in experiment [2] it was 1.3.
In the same order, the values of `C[C@]12CCC(=O)C=C1CC[C@@H]1[C@@H]2C(=O)C[C@@]2(C)[C@H]1CC[C@]2(O)C(=O)CO` are 1.09 and 0.99.
Taken in the same sequence, the figures for `CCN1CCN(C(=O)N[C@@H](C(=O)N[C@@H]2C(=O)N3[C@@H]2SC(C)(C)[C@@H]3C(=O)O)c2ccccc2)C(=O)C1=O` were 1.21 and 0.866.
In the same order, the values of `O=C(O)[C@H](O)Cc1ccccc1` are 0.808 and 1.28.
On to `CC1=C(C/C=C(\C)CCC[C@H](C)CCC[C@H](C)CCCC(C)C)C(=O)c2ccccc2C1=O`, for which the cell viability amounted to 0.823 in experiment [1] and 0.888 in experiment [2].
In the same order, the values of `Cc1ccnc(NS(=O)(=O)c2ccc(N)cc2)n1` are 0.835 and 0.896.
Taken in the same sequence, the figures for `O=P(O)(O)O[C@H]1[C@H](OP(=O)(O)O)[C@@H](OP(=O)(O)O)[C@H](OP(=O)(O)O)[C@@H](OP(=O)(O)O)[C@H]1OP(=O)(O)O` were 1 and 1.07.
As for `NC[C@H]1O[C@H](O[C@H]2[C@H](O)[C@@H](O[C@H]3O[C@H](CO)[C@@H](O)[C@H](N)[C@H]3O)[C@H](N)C[C@@H]2N)[C@H](N)C[C@@H]1O`, the cell viability in experiment [1] was 1.11 and 0.818; in experiment [2], 0.942 and 0.847.
Consider `COc1ccccc1O`, for which the cell viability in experiment [1] is 1.12; in experiment [2], 0.78.
In the same order, the values of `c1ccc(CNc2ncnc3[nH]cnc23)cc1` are 0.343 and 0.566.
Taken in the same sequence, the figures for `C[C@@H]1O[C@@H](O[C@H]2[C@H](Oc3cc(O)c4c(c3)O[C@H](c3ccc(O)cc3)CC4=O)O[C@H](CO)[C@@H](O)[C@@H]2O)[C@H](O)[C@H](O)[C@H]1O` were 1.12 and 0.819.
In the same order, the values of `O=C(O)c1ccc(C(=O)O)o1` are 0.967 and 0.908.
In the case of `CSCC[C@H](NC(C)=O)C(=O)O`, the cell viability in experiment [1] is 1.12; in experiment [2], 1.
Taken in the same sequence, the figures for `CC[C@H](C)C[C@H](C)CCCCCCCCC(=O)N[C@H]1C[C@@H](O)[C@@H](O)NC(=O)[C@@H]2[C@@H](O)CCN2C(=O)[C@H]([C@H](O)CC(N)=O)NC(=O)[C@H]([C@H](O)[C@@H](O)c2ccc(O)cc2)NC(=O)[C@@H]2C[C@@H](O)CN2C(=O)[C@H]([C@@H](C)O)NC1=O` were 0.798 and 0.957.
In the same order, the values of `C[C@@H]1CC[C@@]2(NC1)O[C@H]1C[C@H]3[C@@H]4CC=C5C[C@@H](O[C@@H]6O[C@H](CO)[C@H](O)[C@H](O[C@@H]7O[C@H](CO)[C@@H](O)[C@H](O)[C@H]7O)[C@H]6O[C@@H]6O[C@@H](C)[C@H](O)[C@@H](O)[C@H]6O)CC[C@]5(C)[C@H]4CC[C@]3(C)[C@H]1[C@@H]2C` are 0.895 and 0.996.
As for `CC1(C)S[C@@H]2[C@H](NC(=O)Cc3ccccc3)C(=O)N2[C@H]1C(=O)O`, the cell viability in experiment [1] is 0.9 and 1.01; in experiment [2], 0.912 and 0.88.
`CN1CC(=O)NC1=N`: the cell viability in experiment [1] worked out at 1.15; in experiment [2] it was 0.993.
Taken in the same sequence, the figures for `COc1cc(C2Oc3cc([C@H]4Oc5cc(O)cc(O)c5C(=O)[C@@H]4O)ccc3OC2CO)ccc1O` (stereo partly specified) were 1.07 and 1.07.
Taken in the same sequence, the figures for `NC(=O)c1cc[n+](CC2=C(C(=O)[O-])N3C(=O)[C@@H](NC(=O)[C@@H](c4ccccc4)S(=O)(=O)O)[C@H]3SC2)cc1` were 0.965 and 0.981.
Taken in the same sequence, the figures for `O=C(O)C1=C[C@@H](O)[C@@H](O)[C@H](O)C1` were 1.13 and 1.34.
Consider `CC(C)C[C@H](N)C(=O)O`, for which the values for the cell viability in experiment [1] and in experiment [2] were 0.828 and 0.974, respectively.
Consider `OC[C@@H](O)[C@@H](O)CO`, for which the cell viability in experiment [1] came to 1.08; in experiment [2] it was 0.962.
In the same order, the values of `C[C@H](CCC(=O)NCC(=O)O)[C@H]1CC[C@H]2[C@@H]3[C@@H](O)C[C@@H]4C[C@H](O)CC[C@]4(C)[C@H]3CC[C@]12C` are 0.993 and 0.861.
In the same order, the values of `O=C([O-])[C@H](O)[C@@H](O)[C@H](O)[C@H](O)CO.O=C([O-])[C@H](O)[C@@H](O)[C@H](O)[C@H](O)CO.[Ca+2]` are 1.03 and 1.08.
Taken in the same sequence, the figures for `OC[C@H]1O[C@H](O[C@]2(CCl)O[C@H](CCl)[C@@H](O)[C@@H]2O)[C@H](O)[C@@H](O)[C@H]1Cl` were 0.994 and 0.924.
As to `COC(=O)Nc1nc2cc(C(=O)c3cccs3)ccc2[nH]1`, the cell viability in experiment [1] is 0.675; in experiment [2], 0.789.
Taken in the same sequence, the figures for `Oc1cc(O)c2c(c1)OC(c1ccc(O)c(O)c1)C(OC1(c3ccc(O)c(O)c3)Oc3cc(O)cc(O)c3C(O)C1O)C2` (stereo unspecified) were 1.08 and 1.04.
Take `O=C([O-])CC(O)(CC(=O)[O-])C(=O)[O-].O=C([O-])CC(O)(CC(=O)[O-])C(=O)[O-].[Bi+3].[K+].[K+].[K+]`: the cell viability turned out to be 0.961 in experiment [1] and 0.94 in experiment [2].
In the same order, the values of `CC1(C)CC[C@]2(C(=O)O)CC[C@]3(C)C(=CC[C@@H]4[C@@]5(C)CC[C@H](O[C@@H]6O[C@H](C(=O)O)[C@@H](O)[C@H](O[C@@H]7OC[C@@H](O)[C@H](O)[C@H]7O)[C@H]6O)C(C)(C)[C@@H]5CC[C@]43C)[C@@H]2C1` are 0.719 and 1.12.
Taken in the same sequence, the figures for `CCCCCCC(O)C(=O)O` (stereo unspecified) were 0.942 and 0.862.
Turning to `CO[C@H]1/C=C/O[C@@]2(C)Oc3c(C)c(O)c4c(O)c(c(/C=N/N5CCN(C)CC5)c(O)c4c3C2=O)NC(=O)/C(C)=C\C=C\[C@H](C)[C@H](O)[C@@H](C)[C@@H](O)[C@@H](C)[C@H](OC(C)=O)[C@@H]1C`, the cell viability in experiment [1] amounted to 0.906; in experiment [2] it was 0.844.
Taken in the same sequence, the figures for `COc1ccc(C=CC(=O)O)cc1OC` were 0.94 and 1.1.
Taken in the same sequence, the figures for `COc1cc(Cc2cnc(N)nc2N)cc(OC)c1OC` were 0.909 and 0.88.
Turning to `Cn1nnc(-c2ccc(-c3ccc(N4C[C@H](CO)OC4=O)cc3F)cn2)n1`, the cell viability in experiment [1] is 0.815 and 1.03; in experiment [2], 1.06 and 0.972.
As for `O=c1c(O[C@@H]2O[C@H](CO)[C@@H](O)[C@H](O)[C@H]2O)c(-c2ccc(O)c(O)c2)oc2cc(O)cc(O)c12`, the cell viability in experiment [1] amounted to 1.11; in experiment [2], 0.902.
Taken in the same sequence, the figures for `NC(=O)c1ccc[n+]([C@@H]2O[C@H](COP(=O)([O-])O)[C@@H](O)[C@H]2O)c1` were 1.15 and 0.889.
As to `CC(=O)Nc1ncc([N+](=O)[O-])s1`, the cell viability in experiment [1] stood at 1.05; in experiment [2], 0.86.
In the same order, the values of `O=c1[nH]cc(F)c(=O)[nH]1` are 0.751 and 0.608.
In the same order, the values of `O=c1c(O[C@@H]2O[C@H](CO)[C@@H](O)[C@H](O)[C@H]2O)c(-c2ccc(O)cc2)oc2cc(O)cc(O)c12` are 1.01 and 1.03.
In the same order, the values of `Nc1ccc(O)cc1` are 1.2 and 0.927.
Take `CC(C)CC(=O)C(=O)O`: the cell viability was found to be 1.27 in experiment [1] and 0.93 in experiment [2].
On to `C=C(C)[C@H]1CC=C(C)C(=O)C1`, for which the cell viability in experiment [1] is 1.02; in experiment [2], 1.12.
Taken in the same sequence, the figures for `N[C@@H](COP(=O)(O)O)C(=O)O` were 0.815 and 0.906.
Taken in the same sequence, the figures for `CC[C@H](N)C(=O)O` were 0.895 and 1.05.
In the same order, the values of `CC(C)CCC[C@@H](C)[C@H]1CC[C@H]2[C@@H]3CCC4=CC(=NO)CC[C@]4(C)[C@H]3CC[C@]12C` are 1.05 and 0.852.
With `C[C@]12CC[C@@H]3c4ccc(O)cc4CC[C@H]3[C@@H]1C[C@@H](O)[C@@H]2O`, the cell viability in experiment [1] was found to be 0.96; in experiment [2] it was 0.894.
In the same order, the values of `CCCCC/C=C\C/C=C\CCCCCCCC(=O)O` are 0.914 and 1.01.
Taken in the same sequence, the figures for `CCCCCCCCCC(=O)N[C@H]1[C@H](Oc2c3cc4cc2Oc2ccc(cc2Cl)[C@@H](O[C@@H]2O[C@H](CO)[C@@H](O)[C@H](O)[C@H]2NC(C)=O)[C@@H]2NC(=O)[C@H](NC(=O)[C@@H]4NC(=O)[C@H]4NC(=O)[C@@H](Cc5ccc(c(Cl)c5)O3)NC(=O)[C@H](N)c3ccc(O)c(c3)Oc3cc(O)cc4c3)c3ccc(O)c(c3)-c3c(OC4O[C@H](CO)[C@@H](O)[C@H](O)[C@@H]4O)cc(O)cc3[C@@H](C(=O)O)NC2=O)O[C@H](CO)[C@@H](O)[C@@H]1O` (stereo partly specified) were 1.01 and 0.888.
